Single values of this data set are uncertain.
B1: human tRNA-Pro; a variant is named by its letters at N, in order (parent)
chain: GGCTCGTTGGTCTAGNGGTATGATTCTCGCTTAGGGTGCGAGAGGTCCCGGGTTCNNATCCCGGACGAGCCC

Assays:
[1] = variants of: B1; experiment: tRNA Pol-III promoter activity, log2 (circRNA frequency / plasmid DNA frequency) (log2 ratio); higher = stronger promoter activity; conditions: HEK293T; construct: no Pol-II promoter ((-)CMV library)
[2] = variants of: B1; experiment: tRNA 3' processing efficiency (processed reads / all reads, maximum-likelihood estimate) (fraction); higher = more efficient 3' processing; conditions: HEK293T; construct: no Pol-II promoter ((-)CMV library)
[3] = variants of: B1; experiment: tRNA 5' processing efficiency (processed reads / all reads, maximum-likelihood estimate) (fraction); higher = more efficient 5' processing; conditions: HEK293T; construct: CMV Pol-II promoter ((+)CMV library, decapped)

Variant	tRNA Pol-III promoter activity (log2) [1]	tRNA 3' processing efficiency [2]	tRNA 5' processing efficiency [3]
GCA A58T T59C	4.94	0.25	
TCA A14C T19C	7.94	0.13	
GAT T19A	1.32	0.44	
GAT T19C	1.16	0.27	
GAT T19G	1.52	0.26	
TCA A58C	4.12	0.3	
TCA A58T	3.59	0.18	
GCC A58G	4.25	0.4	
GCA C55T	-0.207	0.54	0.33
GAT T19A T59C	4	0.25	
GAT T8C T59A	3.08	0.4	
GAT T8C T59G	2.02	0.25	
GAT T8G G15T A20C	4.93	0.25	
GCC T8C	4.84	0.29	
GCA T8A A58T	3.94	0.57	
TCG T8C T53A T54G A58T	4.62	0.67	
TAT T59C	3.22	0.22	
GCA A20T	0.242	0.41	
GCA G18C T19C T53C T54G	5.53	0.22	
GCA G15C A58G	3.71	0.17	
TAT G18C	1.76	0.25	
GCA A14C A58C	4.19	0.18	
GCA A14C A58T	6.51	0.33	

Variant	tRNA Pol-III promoter activity (log2) [1]	tRNA 3' processing efficiency [2]	tRNA 5' processing efficiency [3]
AAT G18T	2.36	0.43	
CCA A14T A20G	4.94	0.25	
GCT T19G	4.68	0.2	0.5
GCT T19A	4.03	0.25	
GCT T19C	3.41	0.11	
GCC T19A A58T	3.61	0.5	
GAT G50A	4.26	0.2	
GAT G18T	0.0387	0.15	
GCA T8G A58G	2.45	0.5	
GCA T8G A58T	2.68	0.29	
GCA G9A A14C	4.77	0.4	
GCA T53A	1.8	0.13	
GCA T53G	1.29	0.64	
GAT T59C	4.27	0.39	
GAT T59A	1.53	0.4	
GAT T59G	0.623	0.45	
GCA A20T A58C	6.59	0.68	
GAT T19G T59A	4.75	0.57	
GCA A14T C55T	4.28	0.16	
CCA A58G	4.12	0.62	
CCA A58T	3.18	0.45	
GAT T8G G18A	3.4	0.67	
GCA G15A T19A A58C	4.03	0.4	

Variant	tRNA Pol-III promoter activity (log2) [1]	tRNA 3' processing efficiency [2]	tRNA 5' processing efficiency [3]
TCA A14T A58C	4.26	0.2	
GCC G15C T19A	6.75	0.14	
GCA T8G G18T	3.62	0.25	
GCA T19C A58T	1.42	0.25	
GAT T8C T53A	4.8	0.71	
GCG A58G	4.87	0.73	
GCA T19C A20C	4.93	0.33	
ACA A14G T53G	5.77	0.05	
CCA G9T A58T	6.39	0.64	
GCA A14G G18T	3.33	0.62	
GCA G18A A58T	2.96	0.59	
TAT T8C	1.94	0.25	0.25
TCA T19A	6.53	0.5	
TCA T19C	5.93	0.25	
TCA T19G	4.19	0.33	
GCA G15A	0.35	0.43	
GCA G15C	-0.326	0.33	0.4
GCA G15T	-0.484	0.2	
CAT T59G	3.49	0.2	
GCA A20C A58G	6.75	0.57	
GCA A14T A20C C55T	7.03	0.87	
ACA A58C	3.28	0.43	
ACA A58T	6.31	0.79	

Variant	tRNA Pol-III promoter activity (log2) [1]	tRNA 3' processing efficiency [2]	tRNA 5' processing efficiency [3]
GCA A14C T19G	3.61	0.62	
AAT T8A	3.09	0.4	
AAT T8C	2.53	0.25	
GCC A20G	4.94	0.38	
GCA A14T A58C	4.36	0.13	
GCA A14T A58G	3.4	0.11	
GCA A20G A58C	3.25	0.4	
GCA A20G A58T	5.75	0.29	
GCA A20G A58G	2.79	0.2	
ACA	3.06	0.33	
ACC	4.86	0.26	
GCA G17C	0.0342	0.25	
GCA G17T	1.22	0.2	
GCA A14T G17T A20T A58T	6.26	0.2	
GAT T8G G15C G17T	5.26	0.4	
TCA T19G T59G	5.62	0.33	
GCA T8G	0.527	0.5	
GCA T8C	1.43	0.46	
GCA G18A	0.194	0.36	
TCT G17T	5.94	0.25	
GAT T8C T19G	3.55	0.2	
CCA A14T	3.48	0.29	
CCA A14G	5.18	0.53	

Variant	tRNA Pol-III promoter activity (log2) [1]	tRNA 3' processing efficiency [2]	tRNA 5' processing efficiency [3]
GCA A14T T59A	3.19	0.2	
GCA A14T T59C	3.93	0.25	
GCA A14G G17T A58G	3.36	0.25	
GCA A14G A58C	3.03	0.25	
GCA A14G A58G	2.53	0.17	
ACA G15A	4.36	0.15	
GAT T8G T19G T59C	6.75	0.43	
GCA A14T G17T T19G	4.93	0.5	
GAT T8C A14G T59C	4.93	0.25	
TCG	4.77	0.2	
TCA	2.8	0.38	
TCC	5.16	0.47	
GCA A14C G18T T59G	5.03	0.6	
GAT G45A	7.4	0.09	
ACA C55T	4.26	0.8	
ACA C55G	4.62	0.33	
GCC A58T T59G	5.93	0.25	
GAT T8C G9A	5.94	0.25	
CAT T8C	5.26	0.58	
GCA A58T	1.48	0.29	0.22
GCA A58G	1.52	0.25	
GCA A58C	1.65	0.47	

Limited to tRNA Pol-III promoter activity (log2) [1] and tRNA 3' processing efficiency [2], for some of the entries so far:
Variant	tRNA Pol-III promoter activity (log2) [1]	tRNA 3' processing efficiency [2]
GAT G45A	7.4	0.09
ACA C55T	4.26	0.8
ACA C55G	4.62	0.33
GCC A58T T59G	5.93	0.25
GAT T8C G9A	5.94	0.25

Reference: the supplement of paper PMC6445147
